Results: patent publication US5167824A, “Separation by carrier mediated transport” (priority 1990, dated 1992)
“And” between values parts separate entries of the source, which are not always exact repeats. Equal entries are not always repeated.

Key:
[1] = Oleandrin transport through supported liquid membrane without binding protein; conditions: no binding protein
Excerpt: (§1) A hollow fiber device was constructed using 100×17.8 cm PAN fibers, produced by Sepracor, Inc., Marlborough, Mass. Each PAN fiber is a tubular membrane having a wall thickness of 50 μm and an internal diameter of 205 μm. Thus, this device contains a geometric surface area of 115 cm^2 of PAN fiber. The associated fluid handling equipment comprised two peristaltic pumps, one for the shell loop and one for the luman loop, a pressure gauge on the shell loop for determining the pressure drop from the shell side to the lumen side, and a throttling valve for creating a positive pressure on the shell side.
The device was first washed with 1 L of water. This washing involved convecting water through the lumen, through the shell, and through the PAN fibers from shell-side to lumen.
Following the washing procedure, the liquid membrane was put in place. A buffer solution of the same composition as that in which the FB-sFv protein was dissolved (50 mM sodium chloride) was pumped through the fibers, from the shell-side to the lumen. Approximately 100 mls of buffer solution were convected through the fibers. Both the lumen and shell were then drained of bulk aqueous solution, and 1-octanol previously saturated with the same buffer solution was introduced into both the shell and lumen fluid loops. After establishing uninterrupted convection of 1-octanol through these loops, the throttling valve was closed until a shell-to-lumen pressure drop of 10 psi was created across the fibers. The octanol in both the shell and lumen loops were fed from separate reservoirs, both containing 100 mls of 1-octanol previously saturated with the same buffer used as the supported liquid membrane.
Oleandrin is a cardiac glycoside having a molecular weight of 576, and an organic to aqueous partition coefficient between 1-octanol and water of 338 (Cohnen et al, Drug Res. 28 (II), Heft 12, 1978). This translates to an aqueous to organic coeffient S of about 0.003. The glycoside was dissolved to a final concentration of 2.0 mgs/ml (3.5 mM) in 500 mls of 1-octanol previously saturated with buffer. This reservoir was then placed in the shell fluid loop. A reservoir containing 50 ml of buffer saturated 1-octanol, containing no oleandrin, was placed in the lumen fluid loop, and circulation of these reservoirs through their respective fluid loops commenced. The pressure differential of 10 psi was maintained across the supported liquid membrane. The volumes of the reservoirs were noted, and again observed not to change over a 20 hour period. During this period, successive 1 ml samples of the lumen reservoir were taken. […] The quantity of oleandrin contained in each lumen reservoir sample was determined by HPLC.

[2] = test system: FB-sFv 26-10; test: Oleandrin facilitated transport through supported liquid membrane containing FB-sFv 26-10; design: species or system murine; conditions: for oleandrin concentration (lumen reservoir): 6.0 mgs binding protein
Excerpt: as §1
The fluid loops were then drained. 100 mls of buffer containing 10.0 mgs of FB-sFv 26-10 produced as disclosed above were then slowly ultrafiltered from the shell loop at a pressure of 10 psi. […] After this time, no bulk fluid, either aqueous or organic, was present in either loop. […] Since an optical density of 1.0 at 280 nm indicates a protein concentration of 1.0 mg/ml, the filtrate contained 4.0 mgs protein. 6.0 mgs of FB-sFv 26-10 were therefore assumed to be contained in the supported liquid membrane.
Octanol saturated with buffer, but not containing oleandrin, was then convected through each loop, with the 10 psi pressure differential across the supported liquid membrane. Once uninterrupted convection through each loop was established, the shell loop reservoir was replaced with a reservoir containing 500 mls of octanol saturated with buffer, and containing 2.0 mg/ml oleandrin. The lumen reservoir was replaced with a reservoir containing 50 mls of buffer saturated octanol, containing no oleandrin. Over a 24 hour period, no convective flow of octanol through the supported liquid membrane occurred.
During this period, successive 1 ml samples of the lumen reservoir were taken. In order not to disturb the volume of the lumen reservoir, the octanol taken in each sample was replaced with 1 ml of buffer saturated octanol after drawing each sample. The quantity of oleandrin contained in each lumen reservoir sample was determined by HPLC.

**Q.** What does the source list for `CO[C@H]1C[C@H](O[C@H]2CC[C@@]3(C)[C@H](CC[C@@H]4[C@@H]3CC[C@]3(C)[C@@H](C5=CC(=O)OC5)[C@@H](OC(C)=O)C[C@]43O)C2)O[C@@H](C)[C@@H]1O` [Oleandrin, oleandrin]?
**A.** oleandrin concentration (lumen reservoir) ([1]; 0 hrs): 0 mg/mL; oleandrin concentration (lumen reservoir) ([1]; 19.0 hrs): 0.05 mg/mL and 0.050 mg/mL; oleandrin concentration (lumen reservoir) ([1]; 20.0 hrs): 0.04 mg/mL and 0.040 mg/mL; detectable oleandrin in lumen reservoir ([1]; before 6 hours): did not demonstrate detectable quantities; oleandrin concentration (lumen reservoir) ([2]; 0 hrs): 0 mg/mL; oleandrin concentration (lumen reservoir) ([2]; 0.5 hrs): 0.016 mg/mL; oleandrin concentration (lumen reservoir) ([2]; 1.0 hrs): 0.025 mg/mL; oleandrin concentration (lumen reservoir) ([2]; 2.0 hrs): 0.047 mg/mL; oleandrin concentration (lumen reservoir) ([2]; 3.0 hrs): 0.067 mg/mL; oleandrin concentration (lumen reservoir) ([2]; 4.0 hrs): 0.090 mg/mL; oleandrin concentration (lumen reservoir) ([2]; 6.0 hrs): 0.119 mg/mL; oleandrin concentration (lumen reservoir) ([2]; 7.0 hrs): 0.134 mg/mL; oleandrin concentration (lumen reservoir) ([2]; 7.5 hrs): 0.140 mg/mL; oleandrin concentration (lumen reservoir) ([2]; 23.0 hrs): 0.335 mg/mL; oleandrin concentration (lumen reservoir) ([2]; 24.0 hrs): 0.350 mg/mL; average facilitation factor ([2]; 24-hour average): 4.5; initial facilitation factor ([2]; initial): 8.3
